# Assay results from the supplement of paper PMC6411743.
# ± gives the standard deviation of the averaged measurements. The list shows a part of the results.
# Legend:
# Assay in all cases: NP40-soluble protein abundance relative to vehicle (solubility fold change) (ratio); higher = more soluble protein in presence of GTP
# [1] = target: T1, A0A0C4DFN1|Q8IWA4 and related entries (UniProt Q8IWA4)
# T1 sequence (whole entry): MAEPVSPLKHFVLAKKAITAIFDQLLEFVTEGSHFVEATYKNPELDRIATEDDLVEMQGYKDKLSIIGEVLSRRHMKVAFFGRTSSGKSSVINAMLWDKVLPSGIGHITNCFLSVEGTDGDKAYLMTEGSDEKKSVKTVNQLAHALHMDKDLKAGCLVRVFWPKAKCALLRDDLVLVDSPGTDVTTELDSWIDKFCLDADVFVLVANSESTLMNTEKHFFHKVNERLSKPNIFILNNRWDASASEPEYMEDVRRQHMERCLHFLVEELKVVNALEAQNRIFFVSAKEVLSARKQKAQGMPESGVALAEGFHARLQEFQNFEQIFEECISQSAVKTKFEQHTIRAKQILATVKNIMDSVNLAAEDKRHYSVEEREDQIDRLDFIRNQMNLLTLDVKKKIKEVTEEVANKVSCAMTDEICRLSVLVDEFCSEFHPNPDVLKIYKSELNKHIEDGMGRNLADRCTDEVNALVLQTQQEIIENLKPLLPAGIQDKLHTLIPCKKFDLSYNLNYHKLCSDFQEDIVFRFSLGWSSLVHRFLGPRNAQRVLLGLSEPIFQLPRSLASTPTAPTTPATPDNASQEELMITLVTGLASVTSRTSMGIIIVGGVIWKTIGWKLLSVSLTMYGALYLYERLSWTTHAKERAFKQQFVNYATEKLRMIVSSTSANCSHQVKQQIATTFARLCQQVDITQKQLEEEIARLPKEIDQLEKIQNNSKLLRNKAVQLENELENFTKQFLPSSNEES
# How it was run: (§1)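 Values are fold changes against the detergent-processed vehicle, based on vsn-normalised intensities. Jurkat crude lysate was treated at eight concentrations from 0.1 to 10 mM (10 min at room temperature, then 3 min at 37 °C), solubilised with 0.8% NP40 and benzonase, ultracentrifuged and analysed by TMT-labelled LC-MS/MS over three independent experiments.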
# A0A0C4DFX7|Q9H967 = target: T2, A0A0C4DFX7|Q9H967 (UniProt Q9H967)
# T2 sequence (whole entry): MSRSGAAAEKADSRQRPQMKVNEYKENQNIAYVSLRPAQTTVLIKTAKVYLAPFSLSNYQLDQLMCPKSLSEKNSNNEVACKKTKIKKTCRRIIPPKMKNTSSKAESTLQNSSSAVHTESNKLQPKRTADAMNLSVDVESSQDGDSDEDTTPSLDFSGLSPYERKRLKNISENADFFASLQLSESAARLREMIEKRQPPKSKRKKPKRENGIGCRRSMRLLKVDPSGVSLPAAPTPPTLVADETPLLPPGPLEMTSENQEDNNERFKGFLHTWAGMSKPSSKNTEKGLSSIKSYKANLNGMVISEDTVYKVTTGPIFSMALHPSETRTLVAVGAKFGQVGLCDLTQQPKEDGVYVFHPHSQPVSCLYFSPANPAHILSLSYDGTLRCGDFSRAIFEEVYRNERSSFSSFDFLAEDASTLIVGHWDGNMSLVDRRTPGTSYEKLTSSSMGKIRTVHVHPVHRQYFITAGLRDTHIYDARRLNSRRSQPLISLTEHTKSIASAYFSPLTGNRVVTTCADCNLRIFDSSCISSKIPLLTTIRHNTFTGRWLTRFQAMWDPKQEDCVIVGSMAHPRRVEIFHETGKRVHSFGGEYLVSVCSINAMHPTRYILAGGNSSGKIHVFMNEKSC
# How it was run: as §1
# A0A0C4DG89|Q7L014 = target: T3, A0A0C4DG89|Q7L014 (UniProt Q7L014)
# T3 sequence (whole entry): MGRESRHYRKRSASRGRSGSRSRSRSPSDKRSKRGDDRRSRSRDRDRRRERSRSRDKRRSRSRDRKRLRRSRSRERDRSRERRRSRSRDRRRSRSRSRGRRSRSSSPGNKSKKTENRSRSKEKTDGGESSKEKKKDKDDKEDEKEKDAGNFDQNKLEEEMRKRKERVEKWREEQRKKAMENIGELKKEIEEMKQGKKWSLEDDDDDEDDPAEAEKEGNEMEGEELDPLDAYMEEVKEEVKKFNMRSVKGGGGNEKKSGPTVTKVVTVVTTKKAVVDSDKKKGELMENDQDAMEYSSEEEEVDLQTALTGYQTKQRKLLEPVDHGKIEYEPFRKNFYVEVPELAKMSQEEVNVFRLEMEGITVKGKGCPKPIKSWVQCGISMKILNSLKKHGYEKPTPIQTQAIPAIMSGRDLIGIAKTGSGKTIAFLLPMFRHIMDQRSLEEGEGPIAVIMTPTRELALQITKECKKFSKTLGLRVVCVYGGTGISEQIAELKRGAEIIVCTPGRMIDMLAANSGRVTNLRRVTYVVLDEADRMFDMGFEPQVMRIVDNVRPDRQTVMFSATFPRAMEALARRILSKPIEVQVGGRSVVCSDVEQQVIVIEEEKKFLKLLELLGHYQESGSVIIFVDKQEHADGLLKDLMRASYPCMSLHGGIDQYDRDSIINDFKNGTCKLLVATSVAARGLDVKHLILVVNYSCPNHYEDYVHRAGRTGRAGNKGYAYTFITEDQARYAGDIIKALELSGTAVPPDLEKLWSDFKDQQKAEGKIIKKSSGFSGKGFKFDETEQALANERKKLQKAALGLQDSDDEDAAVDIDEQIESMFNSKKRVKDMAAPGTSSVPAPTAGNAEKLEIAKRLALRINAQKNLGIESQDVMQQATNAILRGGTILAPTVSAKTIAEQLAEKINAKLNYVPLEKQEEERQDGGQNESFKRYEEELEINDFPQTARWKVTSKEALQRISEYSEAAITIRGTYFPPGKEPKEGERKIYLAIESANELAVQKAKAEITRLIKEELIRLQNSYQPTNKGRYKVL
# How it was run: as §1
# A0A0U1RR49|P53992 = target: T4, A0A0U1RR49|P53992 (UniProt P53992)
# T4 sequence (whole entry): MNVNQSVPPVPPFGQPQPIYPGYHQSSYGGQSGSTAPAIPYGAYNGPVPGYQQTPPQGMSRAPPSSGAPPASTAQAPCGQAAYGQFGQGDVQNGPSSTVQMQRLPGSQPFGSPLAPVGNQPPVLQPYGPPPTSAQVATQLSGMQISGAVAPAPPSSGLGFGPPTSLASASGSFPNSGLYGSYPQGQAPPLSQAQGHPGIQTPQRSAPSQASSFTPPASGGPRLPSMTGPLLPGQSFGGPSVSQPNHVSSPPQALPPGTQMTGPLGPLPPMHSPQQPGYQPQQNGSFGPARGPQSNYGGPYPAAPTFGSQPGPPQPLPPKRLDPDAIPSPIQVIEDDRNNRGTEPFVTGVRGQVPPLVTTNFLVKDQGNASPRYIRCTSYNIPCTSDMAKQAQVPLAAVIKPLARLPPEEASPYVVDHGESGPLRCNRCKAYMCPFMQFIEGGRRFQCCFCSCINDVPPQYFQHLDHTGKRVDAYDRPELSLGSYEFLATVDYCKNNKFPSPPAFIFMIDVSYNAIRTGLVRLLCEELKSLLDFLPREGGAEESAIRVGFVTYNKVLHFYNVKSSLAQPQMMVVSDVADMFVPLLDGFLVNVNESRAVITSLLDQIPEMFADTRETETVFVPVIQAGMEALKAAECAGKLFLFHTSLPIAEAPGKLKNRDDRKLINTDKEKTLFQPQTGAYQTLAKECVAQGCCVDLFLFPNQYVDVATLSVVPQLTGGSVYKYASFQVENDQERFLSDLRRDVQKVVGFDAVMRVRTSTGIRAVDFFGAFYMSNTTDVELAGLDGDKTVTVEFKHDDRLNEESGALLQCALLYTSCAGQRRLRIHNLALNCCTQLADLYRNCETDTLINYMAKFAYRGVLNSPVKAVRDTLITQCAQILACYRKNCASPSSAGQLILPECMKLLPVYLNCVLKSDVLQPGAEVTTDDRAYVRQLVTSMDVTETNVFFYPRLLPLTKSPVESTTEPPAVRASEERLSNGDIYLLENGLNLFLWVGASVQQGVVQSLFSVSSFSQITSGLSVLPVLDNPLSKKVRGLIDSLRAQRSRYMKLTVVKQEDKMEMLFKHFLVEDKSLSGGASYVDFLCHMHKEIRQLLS
# How it was run: as §1
structure (smiles),measurement,setting,value
Nc1nc2c(ncn2[C@@H]2O[C@H](COP(=O)(O)OP(=O)(O)OP(=O)(O)O)[C@@H](O)[C@H]2O)c(=O)[nH]1 [guanosine triphosphate],NP40-soluble protein abundance,[1]; concentration: 8mM,1 ± 0.048
same,NP40-soluble protein abundance,[1]; concentration: 10mM,0.919 ± 0.043
same,NP40-soluble protein abundance,A0A0C4DFX7|Q9H967; concentration: 0.1mM,1.08 ± 0.091
same,NP40-soluble protein abundance,A0A0C4DFX7|Q9H967; concentration: 0.5mM,0.947 ± 0.049
same,NP40-soluble protein abundance,A0A0C4DFX7|Q9H967; concentration: 1mM,1.13 ± 0.18
same,NP40-soluble protein abundance,A0A0C4DFX7|Q9H967; concentration: 2mM,1.16 ± 0.1
same,NP40-soluble protein abundance,A0A0C4DFX7|Q9H967; concentration: 4mM,1.28 ± 0.073
same,NP40-soluble protein abundance,A0A0C4DFX7|Q9H967; concentration: 6mM,1.26 ± 0.067
same,NP40-soluble protein abundance,A0A0C4DFX7|Q9H967; concentration: 8mM,1.34 ± 0.19
same,NP40-soluble protein abundance,A0A0C4DFX7|Q9H967; concentration: 10mM,1.33 ± 0.13
same,NP40-soluble protein abundance,A0A0C4DG89|Q7L014; concentration: 0.1mM,1 ± 0.023
same,NP40-soluble protein abundance,A0A0C4DG89|Q7L014; concentration: 0.5mM,1.06 ± 0.042
same,NP40-soluble protein abundance,A0A0C4DG89|Q7L014; concentration: 1mM,1.06 ± 0.022
same,NP40-soluble protein abundance,A0A0C4DG89|Q7L014; concentration: 2mM,0.99 ± 0.021
same,NP40-soluble protein abundance,A0A0C4DG89|Q7L014; concentration: 4mM,0.966 ± 0.016
same,NP40-soluble protein abundance,A0A0C4DG89|Q7L014; concentration: 6mM,0.988 ± 0.019
same,NP40-soluble protein abundance,A0A0C4DG89|Q7L014; concentration: 8mM,1.03 ± 0.033
same,NP40-soluble protein abundance,A0A0C4DG89|Q7L014; concentration: 10mM,0.996 ± 0.037
same,NP40-soluble protein abundance,A0A0U1RR49|P53992; concentration: 0.1mM,1.021 ± 0.0092
same,NP40-soluble protein abundance,A0A0U1RR49|P53992; concentration: 0.5mM,1.03 ± 0.019
same,NP40-soluble protein abundance,A0A0U1RR49|P53992; concentration: 1mM,0.97 ± 0.016
same,NP40-soluble protein abundance,A0A0U1RR49|P53992; concentration: 2mM,0.959 ± 0.028
same,NP40-soluble protein abundance,A0A0U1RR49|P53992; concentration: 4mM,0.9771 ± 0.0036
same,NP40-soluble protein abundance,A0A0U1RR49|P53992; concentration: 6mM,0.957 ± 0.019
same,NP40-soluble protein abundance,A0A0U1RR49|P53992; concentration: 8mM,0.932 ± 0.011
same,NP40-soluble protein abundance,A0A0U1RR49|P53992; concentration: 10mM,0.918 ± 0.037

# An excerpt of these results, with tabs.
structure (smiles)	measurement	setting	value
Nc1nc2c(ncn2[C@@H]2O[C@H](COP(=O)(O)OP(=O)(O)OP(=O)(O)O)[C@@H](O)[C@H]2O)c(=O)[nH]1 [guanosine triphosphate]	NP40-soluble protein abundance	A0A0C4DFX7|Q9H967; concentration: 4mM	1.28 ± 0.073
same	NP40-soluble protein abundance	A0A0C4DFX7|Q9H967; concentration: 6mM	1.26 ± 0.067
